From PubChem BioAssay AID1458 (National Center for Advancing Translational Sciences (NCATS), 2008) come the findings set out here.

Among all 210,000 compounds or so, about 5,900 (2.8%) were called active. Roughly 5% stayed inconclusive and do not appear here. Calls follow the shape of the dose curve; as a rule, active = well fitted activation curve with a large enough effect; inconclusive = small, poorly fitted or top-dose-only effect; inactive = no such curve, though single readings can be large or run the other way. This is a selection; strong and weak results do not stand in their true shares. The source gives no active or inactive call for entries shown without one.
Potency is read from the fitted curve at half-maximal effect.

A short description of this assay: qHTS Assay for Enhancers of SMN2 Splice Variant Expression. Also: nearly all actives have a fitted effect of over 55% in size. As to activity change, positive = activation: % of control where 0% means no effect. To be noted: HEK293 SMN2-luciferase splicing reporter, luminescence, 30-36 h; activity change, positive = activation: at 46.1 µM (top of the series) unless noted. The essentials:
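HEK293 cells carry an SMN2 […]–luciferase reporter in which exon 7 inclusion puts luciferase in frame. Cells were plated 10-12 h before compound addition, then incubated 30-36 h at 37C. ONE-Glo luminescence was read; sodium butyrate at 4.5 mM final served as control.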
In general terms: In qHTS, concentration-response curves come from the screen itself.
Turning to `CC(=O)n1cc(C(C[N+](=O)[O-])SCCN)c2ccccc21` (stereo not given), the activity change, positive = activation was -89.5%.
Still for that read-out and setting: the same measure for `CC(C)(C)c1ccc(-c2noc(CCC(=O)NCC3CCCO3)n2)cc1` (stereo not given): inactive: -58%.
Same read-out and setting: the same measure for `Cc1cccnc1Nc1nc(-c2ccccn2)cs1`: -37.4%; for `CS(=O)(=O)Nc1ccc(Cc2ccc(NS(C)(=O)=O)cc2)cc1`: inactive: -42.8%.
On the same count and under the same terms, the value for `Cc1cc(/C=C2\SC(=S)N(Cc3ccco3)C2=O)c(C)n1-c1ccccc1` was -63.7%; that for `CCCCOCCCNc1ncnc2c1[nH]c1ccccc12` was inactive: -83.1%; that for `CN(c1cccc(NC(=O)Cc2ccccc2)c1)S(C)(=O)=O` was 23.7%.
Consider `CCOc1ccc(NC(c2ccccn2)c2oc(CO)cc(=O)c2O)cc1` (stereo not given), for which the activity change, positive = activation turned out to be 95.3%.
The same measure, in the same setting: the same measure for `CCCN1C/C(=C/c2cccc([N+](=O)[O-])c2)C(=O)/C(=C/c2cccc([N+](=O)[O-])c2)C1`: -65.2%; for `CCCc1nnc(SCC(=O)Nc2ccc(OC)cc2)n1N`: 31.3%; for `O=C(c1ccc(F)cc1)c1cnc(Nc2ccccc2)s1`: 158%.
For `Cc1ccc2nc(COc3ccc(Cl)cc3)cc(=O)n2c1`, the Potency is active: 12.6 µM.
For `CCN(C(=O)COC(=O)/C=C/c1c(C)nn(Cc2ccc(C)cc2)c1C)C1CCS(=O)(=O)C1` (stereo not given), the “activity change, positive = activation” value was inactive: -34.9%.
With `C/C(=N\NC(=O)c1cc(C(C)C)[nH]n1)c1ccco1`, the Potency is active: 2.82 µM.
For the compound `COc1ccc(CNCCc2ccc(Cl)cc2)cc1OCc1ccccc1`, the “activity change, positive = activation” value was inactive: -54.1%.
Still for that read-out and setting: the value for `COc1cc(NC(=O)c2ccco2)c(OC)cc1NC(=O)Nc1ccccc1Cl` was -5.75%.
The same measure, in the same setting: the value for `Cc1cc(OC(=O)c2ccc(S(=O)(=O)N(C)C)cc2)cc(=O)o1` was 41.3%; that for `Brc1ccc2nc(N3CCCC3)sc2c1` was 37.1%; that for `CCN1CCCC1CNc1ncnc2c1[nH]c1ccc(F)cc12` (stereo not given) was 30.4%.
Same read-out and setting: the same measure for `CC1(C)CC(=O)CC(C)(C)N1OC(=O)c1ccncc1`: 33.9%; for `COC(=O)c1c(NC(=O)CCCOc2ccc(C)cc2)sc2c1C(C(=O)OC)CC2` (stereo not given): inactive: -50.4%.
In the case of `CC(=O)c1ccc(N2CCN(C(C)C(=O)NC3CCCc4ccccc43)CC2)cc1` (stereo not given), the “activity change, positive = activation” value is inactive: -32.9%.
The same measure, in the same setting: the same measure for `CCOc1ccc(OCC)c(S(=O)(=O)N2CCN(c3cccc(C)c3C)CC2)c1`: inactive: -30.2%.
Same read-out and setting: the value for `Cc1ccc(C(=O)NCCNc2ccc([N+](=O)[O-])cc2C(F)(F)F)cc1` was -58.6%.
On the same count and under the same terms, the value for `O=C(NC(=S)Nc1ccc(S(=O)(=O)N2CCCC2)cc1)C1CCC1` was 30.3%; that for `Nc1n[nH]c(N)c1N=Nc1ccc(Cl)cc1Cl` was 65%.
On to `O=C(Nc1ccc2c(c1)OCO2)c1noc2c1CCCCC2`, for which the Potency was active: 5.62 µM.
As for `Cc1c(Cl)cn2c(=O)cc(CN3CCN(c4ccc(F)cc4)CC3)nc2c1Cl`, the activity change, positive = activation is -90.1%.
For the compound `CC(=O)c1c(N2CCN(c3cccc(Cl)c3)CC2)nc(=S)n(-c2ccccc2)c1C`, the activity change, positive = activation worked out at 42.7%.
Take `Nc1cc(-c2ccc(Br)cc2)nc2cc(-c3ccccc3)nn12`: the “activity change, positive = activation” value was inactive: -24.9%.
